This note sets out measurements from the DeepSol protein solubility set.

The data set can be described thus: soluble on expression in E. coli; label from the status in PepcDB or PDB records.

With “MSMSSSSSICGDEDGDLLLDEEEEIDFYAILNVPKDATDDEIIKAYRKRCLMFHPDRFVDNDEKKDAERVFVKLRRAHEVLLDPKQRAIYDALGVQGLDTQGWELVSRSANPENIRKEYEFLQRLKDRELMLQRVHPTSAFMIKTTIAGMFQENDEDRYPPQLLGISLSQSVDCAFTGVDRFGLSGRVKTGNGRGDGSVSAVWKRVAGSYNLENTISLSAESVSLTCRAARNVFTRAAVIVQPQLQYNMLHEAIIPSIAMSMLNRIKKVYSEKDRLFTDSSIFCKIPFYSMRLHTRWQGSIVLNISPIANALTTTMVHTENNHAKAVGSLTLSPINSNVRLVYYIRKPENDSITEMSVQLTTYGVNPAISMDRRLSRYSRISCSFHFSFPSCLLYTKFKLKAGQSTFDWQIVLCDDKEALSRSVLYGVAIPYFSFQLAKVIFRPWWEKFKSMFEDNSREQEVDVAKKEEAANIVSLMRATAERIKRDEESKQGVIIESAKYGQCDVSGTRAYPLAGERTIDVTVPLQAMVNDSQLRVYTVKSQLPGFYDPCPGEPKMLTVRYIFRGEEHSCTVADEMPLMLPLRAHRLSSE”, the “soluble on expression in E. coli” value is “not soluble”.

Regarding “MRRTHYAGSLRETHVGEEVVLEGWVNRRRDLGGLIFLDLRDREGLVQLVAHPASPAYATAERVRPEWVVRAKGLVRLRPEPNPRLATGRVEVELSALEVLAEAKTPPFPVDAGWRGEEEKEASEELRLKYRYLDLRRRRMQENLRLRHRVIKAIWDFLDREGFVQVETPFLTKSTPEGARDFLVPYRHEPGLFYALPQSPQLFKQMLMVAGLDRYFQIARCFRDEDLRADRQPDFTQLDLEMSFVEVEDVLELNERLMAHVFREALGVELPLPFPRLSYEEAMERYGSDKPDLRFGLELKEVGPLFRQSGFRVFQEAESVKALALPKALSRKEVAELEEVAKRHKAQGLAWARVEEGGFSGGVAKFLEPVREALLQATEARPGDTLLFVAGPRKVAATALGAVRLRAADLLGLKREGFRFLWVVDFPLLEWDEEEEAWTYMHHPFTSPHPEDLPLLEKDPGRVRALAYDLVLNGVEVGGGSIRIHDPRLQARVFRLLGIGEEEQREKFGFFLEALEYGAPPHGGIAWGLDRLLALMTGSPSIREVIAFPKNKEGKDPLTGAPSPVPEEQLRELGLMVVRP”, the “soluble on expression in E. coli” value is recorded as “soluble”. Turning to “MGSDKIHHHHHHMGLKFSNFGKAIISSAPSGTTGLSFTIEAGKGVLFPSPGIGDYFYGIFKDASGNREIVKIEARTSDSLTIAQGGRGLDGTAPRTWAAGDYFVAGVTNIALQESLANPNLQALGGLETSADKMAYFTGPGTAALANLSSYIRSLLDDDNAATARETLGAAPASLIPPGTVMSFFQATAPTGWTQVTTHHNKALRVVGSAGGGSGGSVAFTSAFTSQAVSGWNSATTLTSAQIPAHTHSLSVYGTSGGGANPSGGGGGIITGMPITDAGTGGGGSHSHIFTGTAINLAVQYIDIIIASKD”, the “soluble on expression in E. coli” value is given as “not soluble”.

“MSTEHVSNVYSVESLLSNVEKSSVSPTESIEDRNEFMITEDVMSSWQRMAATISLQQKLLMMQQTMPRPPPVNILGNFPFGFLNAPMFWQQYLRSMAMGIIPQNPESPSASVWNRTPTPPVEIKPFHCQKCTKLFSTIAALEQHQQVHVSDKQFECKQCGKTFKRSSTLSTHLLIHSDTRPYPCEYCGKRFHQKSDMKKHTYIHTGEKPHKCTVCGKAFSQSSNLITHTRKHTGFKPFACDVCGRTFQRKVDRRRHRESHHPGHPEECVSASQISSDLSPKGYMTPPTSNGYLDSSDEFLNVFRLPAELLAIKAEMGEEMEEADDEEEKVLNLSVS”: the “soluble on expression in E. coli” value is listed as “not soluble”. The result for “MSDSGSQLGSMGSLTMKSQLQITVISAKLKENKKNWFGPSPYVEVTVDGQSKKTEKCNNTNSPKWKQPLTVIVTPVSKLHFRVWSHQTLKSDVLLGTAALDIYETLKSNNMKLEEVVVTLQLGGDKEPTETIGDLSICLDGLQLESEVVTNGETTCSESASQNDDGSRSKDETRVSTNGSDDPEDAGAGENRRVSGNNSPSLSNGGFKPSRPPRPSRPPPPTPRRPASVNGSPSATSESDGSSTGSLPPTNTNTNTSEGATSGLIIPLTISGGSGPRPLNPVTQAPLPPGWEQRVDQHGRVYYVDHVEKRTTWDRPEPLPPGWERRVDNMGRIYYVDHFTRTTTWQRPTLESVRNYEQWQLQRSQLQGAMQQFNQRFIYGNQDLFATSQSKEFDPLGPLPPGWEKRTDSNGRVYFVNHNTRITQWEDPRSQGQLNEKPLPEGWEMRFTVDGIPYFVDHNRRTTTYIDPRTGKSALDNGPQIAYVRDFKAKVQYFRFWCQQLAMPQHIKITVTRKTLFEDSFQQIMSFSPQDLRRRLWVIFPGEEGLDYGGVAREWFFLLSHEVLNPMYCLFEYAGKDNYCLQINPASYINPDHLKYFRFIGRFIAMALFHGKFIDTGFSLPFYKRILNKPVGLKDLESIDPEFYNSLIWVKENNIEECDLEMYFSVDKEILGEIKSHDLKPNGGNILVTEENKEEYIRMVAEWRLSRGVEEQTQAFFEGFNEILPQQYLQYFDAKELEVLLCGMQEIDLNDWQRHAIYRHYARTSKQIMWFWQFVKEIDNEKRMRLLQFVTGTCRLPVGGFADLMGSNGPQKFCIEKVGKENWLPRSHTCFNRLDLPPYKSYEQLKEKLLFAIEETEGFGQE” reads “soluble”; that for “MNNGTVKWFNAEKGFGFIEREDGSDVFVHFSAIAEDGYKSLEEGQKVEFDIVEGDRGEQAANVVKM”, “not soluble”; that for “MSQHKFLFTSESVSEGHPDKMCDQISDAVLDAHLAQDPHAKVACGFDYKTCNVLVALEQQSPEIAAGVHVDKDSDDVGAGDQGIMFGYATDETEEAMPLTLLLSHKLNRKLHELRRSGELEWVRPDSKTQVTIEYASEGGACIPLRVHTVVISTQHSPDISLDDLRKELIVKVIKAVIPANLIDDKTIYHLNPCGSFIIGGPMGDAGLTGRKIIVDTYGGWGAHGGGAFSGKDPTKVDRSAAYAARWVAKSLVKSGLCRRCLVQVSYAIGVAKPLSVMVFSFGTSALNEGELLKIVNDNFDLRPGMIIKDLDLKKPIYEPTAENGHFGHNEFPWEQPRHLQIDVELLKKIGGKTISNGNGIAH”, “not soluble”. The result for “TRDAALPGSHSTHGFYENYEPKEILGRGVSSVVRRCIHKPTCKEYAVKIIDVTGGGSFSAEEVQELREATLKEVDILRKVSGHPNIIQLKDTYETNTFFFLVFDLMKKGELFDYLTEKVTLSEKETRKIMRALLEVICALHKLNIVHRDLKPENILLDDDMNIKLTDFGFSCQLDPGEKLREVCGTPSYLAPEIIECSMNDNHPGYGKEVDMWSTGVIMYTLLAGSPPFWHRKQMLMLRMIMSGNYQFGSPEWDDYSDTVKDLVSRFLVVQPQKRYTAEEALAHPFFQQYVVEEVRHF” reads “soluble”; that for “MDVLPMCSIFQELQIVHETGYFSALPSLEEYWQQTCLELERYLQSEPCYVSASEIKFDSQEDLWTKIILAREKKEESELKISSSPPEDTLISPSFCYNLETNSLNSDVSSESSDSSEELSPTAKFTSDPIGEVLVSSGKLSSSVTSTPPSSPELSREPSQLWGCVPGELPSPGKVRSGTSGKPGDKGNGDASPDGRRRVHRCHFNGCRKVYTKSSHLKAHQRTHTGEKPYRCSWEGCEWRFARSDELTRHFRKHTGAKPFKCSHCDRCFSRSDHLALHMKRHL”, “not soluble”; that for “MAQLSLQHIQKIYDNQVHVVKDFNLEIADKEFIVFVGPSGCGKSTTLRMIAGLEEISGGDLLIDGKRMNDVPAKARNIAMVFQNYALYPHMTVYDNMAFGLKMQKIAKEVIDERVNWAAQILGLREYLKRKPGALSGGQRQRVALGRAIVREAGVFLMDEPLSNLDAKLRVQMRAEISKLHQKLNTTMIYVTHDQTEAMTMATRIVIMKDGIVQQVGAPKTVYNQPANMFVSGFIGSPAMNFIRGTIDGDKFVTETLKLTIPEEKLAVLKTQESLHKPIVMGIRPEDIHPDAQEENNISAKISVAELTGAEFMLYTTVGGTS”, “soluble”.
